# Assay results taken from paper PMC9283515.
# Amino acid sequences for entries named in this document (tags omitted). A change or cut given only in a name is not applied to a line headed by its entry.
# UniProt H1VPS8: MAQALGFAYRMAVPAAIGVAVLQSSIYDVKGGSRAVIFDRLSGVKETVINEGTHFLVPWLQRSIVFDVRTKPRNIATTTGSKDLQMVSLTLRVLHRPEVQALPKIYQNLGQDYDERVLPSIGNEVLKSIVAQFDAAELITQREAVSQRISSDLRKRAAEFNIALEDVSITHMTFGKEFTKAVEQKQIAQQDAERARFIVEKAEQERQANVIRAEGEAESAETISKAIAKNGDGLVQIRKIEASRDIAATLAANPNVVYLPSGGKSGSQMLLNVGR
# UniProt H1VAN0: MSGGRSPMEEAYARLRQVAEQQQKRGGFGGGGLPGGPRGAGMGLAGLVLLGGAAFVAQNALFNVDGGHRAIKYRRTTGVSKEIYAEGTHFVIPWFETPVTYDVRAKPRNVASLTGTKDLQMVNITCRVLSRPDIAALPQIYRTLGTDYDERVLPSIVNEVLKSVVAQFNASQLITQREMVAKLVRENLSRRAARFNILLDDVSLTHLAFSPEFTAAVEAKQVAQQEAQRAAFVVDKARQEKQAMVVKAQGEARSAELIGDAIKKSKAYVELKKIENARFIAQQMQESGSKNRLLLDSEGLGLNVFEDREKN
# No constants are given. Whether binding was seen depends on the method and setting. A result given as binding can be weak or reduced; the word gives no strength.
# Biological target: ChPhb1 (yeast two-hybrid fusion) (C. higginsianum) (UniProt H1VPS8)
# Assay: two-hybrid
substance,measurement,value
ChPhb2 (yeast two-hybrid fusion) (from UniProt H1VAN0),binding,binds
